Among the data in article PMC11077377 are binding values, retold here.

Protein sequences, listed by entry. Tags and fused reporters are not part of them. Residues count along the entry.
UniProt Q16610, residues 20-540: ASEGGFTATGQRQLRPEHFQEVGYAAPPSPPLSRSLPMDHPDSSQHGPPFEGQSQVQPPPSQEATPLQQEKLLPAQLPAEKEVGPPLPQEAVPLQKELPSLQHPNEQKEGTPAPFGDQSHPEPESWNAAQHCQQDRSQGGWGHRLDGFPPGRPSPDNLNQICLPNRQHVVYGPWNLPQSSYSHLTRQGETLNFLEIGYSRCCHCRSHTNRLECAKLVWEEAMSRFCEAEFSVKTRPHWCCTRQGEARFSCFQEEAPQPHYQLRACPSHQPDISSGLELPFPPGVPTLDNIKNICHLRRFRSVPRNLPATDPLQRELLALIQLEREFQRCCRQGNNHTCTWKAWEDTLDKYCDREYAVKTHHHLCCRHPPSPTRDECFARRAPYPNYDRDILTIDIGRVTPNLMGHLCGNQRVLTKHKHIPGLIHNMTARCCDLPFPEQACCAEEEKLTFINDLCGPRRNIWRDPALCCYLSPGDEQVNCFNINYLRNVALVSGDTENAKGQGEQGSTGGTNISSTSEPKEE
UniProt P35968, residues 20-1356: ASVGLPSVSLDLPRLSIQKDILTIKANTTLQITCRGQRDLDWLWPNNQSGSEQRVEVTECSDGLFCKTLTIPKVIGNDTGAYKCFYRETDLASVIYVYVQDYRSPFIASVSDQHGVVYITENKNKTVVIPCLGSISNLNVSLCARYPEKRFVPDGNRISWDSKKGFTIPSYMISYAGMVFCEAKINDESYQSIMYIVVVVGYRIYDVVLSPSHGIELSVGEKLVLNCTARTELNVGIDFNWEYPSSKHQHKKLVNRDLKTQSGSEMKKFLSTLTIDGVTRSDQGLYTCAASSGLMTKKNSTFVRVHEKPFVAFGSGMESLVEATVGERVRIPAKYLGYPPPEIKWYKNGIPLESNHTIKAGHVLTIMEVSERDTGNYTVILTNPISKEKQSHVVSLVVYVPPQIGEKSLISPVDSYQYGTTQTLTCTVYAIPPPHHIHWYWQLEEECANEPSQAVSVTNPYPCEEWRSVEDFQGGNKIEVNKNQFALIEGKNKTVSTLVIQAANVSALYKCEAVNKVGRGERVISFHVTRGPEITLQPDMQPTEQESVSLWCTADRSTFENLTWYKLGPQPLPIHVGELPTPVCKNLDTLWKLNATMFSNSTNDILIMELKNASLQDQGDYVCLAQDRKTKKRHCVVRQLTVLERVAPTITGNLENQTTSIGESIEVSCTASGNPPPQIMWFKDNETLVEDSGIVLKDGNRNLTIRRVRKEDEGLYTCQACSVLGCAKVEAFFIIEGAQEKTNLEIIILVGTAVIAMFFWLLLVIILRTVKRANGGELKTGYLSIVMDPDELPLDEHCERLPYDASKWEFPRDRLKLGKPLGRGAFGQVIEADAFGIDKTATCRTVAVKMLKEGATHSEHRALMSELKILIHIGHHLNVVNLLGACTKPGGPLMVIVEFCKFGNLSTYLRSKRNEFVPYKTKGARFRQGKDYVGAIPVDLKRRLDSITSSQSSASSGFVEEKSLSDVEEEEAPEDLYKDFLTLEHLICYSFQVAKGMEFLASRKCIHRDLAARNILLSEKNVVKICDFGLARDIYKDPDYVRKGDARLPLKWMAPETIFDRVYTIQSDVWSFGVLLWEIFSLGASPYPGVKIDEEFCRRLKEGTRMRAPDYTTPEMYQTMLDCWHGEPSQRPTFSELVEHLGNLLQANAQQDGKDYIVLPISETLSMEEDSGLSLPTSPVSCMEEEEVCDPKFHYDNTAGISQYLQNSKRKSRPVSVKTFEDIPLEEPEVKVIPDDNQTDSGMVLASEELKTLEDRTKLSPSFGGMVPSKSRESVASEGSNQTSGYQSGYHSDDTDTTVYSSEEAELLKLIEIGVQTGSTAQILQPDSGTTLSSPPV

The target of the assay is extracellular matrix protein 1 (ECM1) (human) (UniProt Q16610). As to the kind of experiment: affinity purification with mass spectrometry; IP of ECM1 from RIPA cell lysate on protein A/G beads; SDS-PAGE, silver staining, stained band excised and sent for mass spectrometry.

Results are given in words; binding and its absence hold for the method and conditions named. Binding seen in cells or lysates may run through a third protein. A yes stands for co-enrichment or nearness to the bait. Other partners may have been found.

For the substance “vascular endothelial growth factor receptor 2 (VEGFR2) (from UniProt P35968 20-1356)”, the binding result was “binds”.
